Consider four substances from patent US4992418A (Mount Sinai School of Medicine, priority 1987, dated 1991).

A short description of the data set: general procedure: solution-phase peptide synthesis; DCC/HOBT. The settings on record: coupling step.
In the case of “Boc.Asp(cHex)-Leu-Val-Glu(cHex)-Ala.OBu^t”, the step yield is 85%.
In turn, “Boc.Ser(Bzl)-Asp(cHex)-Leu-Val-Glu(cHex)-Ala-Leu-Tyr(Bzl)-Leu-Val-Cys(Dpm)- Gly-Glu(Bzl)-Arg(NO2)-Gly-Phe-Phe-Tyr(Bzl)-Thr-Pro-Lys(Z)-Thr(Bzl).OBzl” returned a step yield of 88%.
In turn, “Boc.Ser(Bzl)-Asp(cHex)-Leu-Val-Glu(cHex)-Ala.OH” had a step yield of 90%.
Z.Leu-Val-Glu (cHex)-Ala.OBu^t showed a step yield of 88%.
